In US20210079070A1 one finds binding data, which are given here for 4 molecules.

Results are given in words; binding and its absence hold for the method and conditions named. For part of these data: A result given as binding can be weak or reduced; the word gives no strength.

Assay [1] deals with HIV-1 Env CD4BS2 mutant K207E (HIV-1). Description: binding to Env mutants (FIG. 6A).
Assay [2] has the same target. The experiment in a line: ELISA, panel 'N6 70-03 Binding to BG505 SOSIP.664', HIV-1 Env mutation: K207E. In general terms: ELISA stands for enzyme-linked immunosorbent assay.
The target in assay [3] is BG505 SOSIP.664 Env ectodomain trimer (HIV-1). Description: ELISA, BG505 SOSIP.664 coated on the plate, HRP anti-human IgG, OD 450.
The target is the same in assay [4]. Description: ELISA, BG505 SOSIP.664 coated at 2 µg/ml.

B1: N6 70-03 (antibody, V domains shown)
VH: RAHLVQSGTAMKKPGASVRVSCQTSGYTFTAHILFWFRQAPGRGLEWVGWIKPQYGAVNFGGGFRDRVTLTRQLSQDPDDPDWGIAYMDIRGLKPDDTAVYYCARDRSYGDSSWALDAWGQGTTVVVSA
VL: YIHVTQSPSSLSVSIGDRVTINCQTSQGVGSDLHWYQHKPGRAPKLLIHHTSSVEDGVPSRFSGSGFHTSFNLTISDLQADDIATYYCQVLQFFGRGSRLHIK
On to B1, for which the binding entry in assay [1] and in assay [2] was “binds” each time.

B2: VRC03 (antibody, V domains shown)
VH: QVQLVQSGAVIKTPGSSVKISCRASGYNFRDYSIHWVRLIPDKGFEWIGWIKPLWGAVSYARQLQGRVSMTRQLSQDPDDPDWGVAYMEFSGLTSADTAEYFCVRRGSCDYCGDFPWQYWGQGTWVVSSA
VL: EIVLTQSPGILSLSPGETATLFCKASQGGNAMTWYQKRRGQVPRLLIYDTSRRASGVPDRFVGSGSGTDFFLTINKLDREDFAVYYCQQFEFFGLGSELEVH
B2: the binding result in assay [3] is on record as “binds”.

B3: VRC03del (antibody, V domains shown)
VH: QVQLVQSGAVIKTPGSSVKISCRASGYNFRDYSIHWVRLIPDKGFEWIGWIKPLWGAVSYARQLQGRVSMTRQLGPGWGVAYMEFSGLTSADTAEYFCVRRGSCDYCGDFPWQYWGQGTWVVSSA
VL: EIVLTQSPGILSLSPGETATLFCKASQGGNAMTWYQKRRGQVPRLLIYDTSRRASGVPDRFVGSGSGTDFFLTINKLDREDFAVYYCQQFEFFGLGSELEVH
Turning to B3, the figures for the binding result in assay [4] and in assay [3] were “no binding” and “no binding (tested: about 20 µg/ml)”, respectively.

B4: VRC06 (antibody, V domains shown)
VH: EVQLVESGPVMRKPGSSMKISCATSGYNFRDFSIHWVRFNRRYGFEWIGWIKPMWGAVNYARQLQGRVSMSRLFSQDLYYPDRGTAYLEFSGLTSADTADYFCVRRGSSCPHCGDFHFEHWGQGTAVVVSA
VL: EIVLTQSPATLSLSPGERATLSCRASQGGNSLNWYQKRRGQTPRLLIYDTSRRASDIPEKFVGSGSGTDFSLTITKVGPEDFAVYYCQQFEFFGLGTTLEIN
For B4, in assay [3], the binding result is “binds”.
